In the supplement of paper PMC10849652:
The other results are listed elsewhere or left out.

By UniProt entry, the sequences of proteins in these tests, tags left out. Where a name states a change or a piece, a line headed by the entry shows the natural chain unless it says otherwise.
UniProt P56556, whole entry, looked up: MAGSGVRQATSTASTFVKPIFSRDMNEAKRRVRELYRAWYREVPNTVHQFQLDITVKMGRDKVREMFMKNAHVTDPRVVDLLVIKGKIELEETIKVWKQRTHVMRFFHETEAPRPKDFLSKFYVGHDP
UniProt Q15843, whole entry, looked up: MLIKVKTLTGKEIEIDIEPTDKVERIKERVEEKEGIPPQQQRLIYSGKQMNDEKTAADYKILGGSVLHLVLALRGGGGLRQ
UniProt O95544: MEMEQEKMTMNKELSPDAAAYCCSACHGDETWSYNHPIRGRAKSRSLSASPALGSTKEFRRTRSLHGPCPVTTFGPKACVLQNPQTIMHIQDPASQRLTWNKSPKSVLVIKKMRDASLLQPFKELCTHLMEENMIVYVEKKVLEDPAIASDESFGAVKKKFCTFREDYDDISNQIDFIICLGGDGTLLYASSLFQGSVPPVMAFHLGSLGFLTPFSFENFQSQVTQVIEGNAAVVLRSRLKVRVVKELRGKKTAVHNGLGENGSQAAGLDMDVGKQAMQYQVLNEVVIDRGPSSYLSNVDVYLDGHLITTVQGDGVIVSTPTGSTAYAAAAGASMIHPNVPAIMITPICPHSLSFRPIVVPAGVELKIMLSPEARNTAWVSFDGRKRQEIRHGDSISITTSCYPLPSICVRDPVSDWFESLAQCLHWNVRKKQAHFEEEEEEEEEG
UniProt Q8TBE9: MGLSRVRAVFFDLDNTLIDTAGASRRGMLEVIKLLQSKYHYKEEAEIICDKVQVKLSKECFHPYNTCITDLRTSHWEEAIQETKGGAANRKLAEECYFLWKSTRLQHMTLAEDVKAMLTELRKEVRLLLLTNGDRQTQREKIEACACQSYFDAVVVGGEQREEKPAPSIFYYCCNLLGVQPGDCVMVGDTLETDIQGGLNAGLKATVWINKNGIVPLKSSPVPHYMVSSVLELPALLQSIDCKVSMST
UniProt Q99733: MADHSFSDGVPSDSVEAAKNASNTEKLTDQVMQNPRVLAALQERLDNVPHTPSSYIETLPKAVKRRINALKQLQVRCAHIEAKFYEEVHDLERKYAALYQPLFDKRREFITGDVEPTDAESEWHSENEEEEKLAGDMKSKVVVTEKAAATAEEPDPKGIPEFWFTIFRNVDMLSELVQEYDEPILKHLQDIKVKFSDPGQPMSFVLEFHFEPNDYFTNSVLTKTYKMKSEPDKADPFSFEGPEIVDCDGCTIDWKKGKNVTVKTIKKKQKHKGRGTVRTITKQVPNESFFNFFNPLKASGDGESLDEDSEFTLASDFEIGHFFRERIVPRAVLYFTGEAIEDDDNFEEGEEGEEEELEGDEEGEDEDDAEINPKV
UniProt Q9UGV2: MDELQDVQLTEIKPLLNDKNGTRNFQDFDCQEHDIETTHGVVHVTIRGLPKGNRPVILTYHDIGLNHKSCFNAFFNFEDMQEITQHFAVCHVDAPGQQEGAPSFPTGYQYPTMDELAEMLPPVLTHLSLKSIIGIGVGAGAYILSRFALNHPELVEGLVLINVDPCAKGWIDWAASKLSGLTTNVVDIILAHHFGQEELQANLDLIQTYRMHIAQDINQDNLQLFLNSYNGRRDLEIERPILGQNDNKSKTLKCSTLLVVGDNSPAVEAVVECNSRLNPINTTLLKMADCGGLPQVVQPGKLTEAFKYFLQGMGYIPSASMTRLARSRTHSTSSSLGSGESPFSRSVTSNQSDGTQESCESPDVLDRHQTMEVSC
UniProt Q6IA69: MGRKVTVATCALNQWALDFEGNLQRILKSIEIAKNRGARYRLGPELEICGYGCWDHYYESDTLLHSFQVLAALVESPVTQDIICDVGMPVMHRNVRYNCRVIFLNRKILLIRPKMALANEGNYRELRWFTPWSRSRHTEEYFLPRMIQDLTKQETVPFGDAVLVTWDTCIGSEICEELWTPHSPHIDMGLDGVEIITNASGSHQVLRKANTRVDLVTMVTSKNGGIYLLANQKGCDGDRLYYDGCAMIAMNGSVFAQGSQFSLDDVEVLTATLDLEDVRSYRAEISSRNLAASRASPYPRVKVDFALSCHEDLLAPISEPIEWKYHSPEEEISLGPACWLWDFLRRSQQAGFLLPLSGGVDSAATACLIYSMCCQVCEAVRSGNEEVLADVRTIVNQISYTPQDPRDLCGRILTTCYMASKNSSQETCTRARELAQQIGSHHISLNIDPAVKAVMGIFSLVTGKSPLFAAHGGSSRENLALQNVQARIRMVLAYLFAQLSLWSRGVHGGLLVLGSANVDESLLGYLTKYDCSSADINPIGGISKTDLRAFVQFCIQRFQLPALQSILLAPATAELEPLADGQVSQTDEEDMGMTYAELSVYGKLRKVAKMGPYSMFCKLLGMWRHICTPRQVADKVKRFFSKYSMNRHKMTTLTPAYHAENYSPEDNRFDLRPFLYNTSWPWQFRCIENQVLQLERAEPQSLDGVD
UniProt O75438, whole entry, looked up: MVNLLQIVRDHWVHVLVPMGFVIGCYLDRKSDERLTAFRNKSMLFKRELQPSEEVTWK
UniProt O95298, whole entry, looked up: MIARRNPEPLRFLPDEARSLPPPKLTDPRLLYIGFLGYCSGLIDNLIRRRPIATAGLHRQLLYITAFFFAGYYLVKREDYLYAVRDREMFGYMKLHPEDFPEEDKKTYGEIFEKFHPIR
UniProt O00483, whole entry, looked up: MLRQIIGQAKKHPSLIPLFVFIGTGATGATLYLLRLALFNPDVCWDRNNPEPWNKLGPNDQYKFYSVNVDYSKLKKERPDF
UniProt Q96RE7: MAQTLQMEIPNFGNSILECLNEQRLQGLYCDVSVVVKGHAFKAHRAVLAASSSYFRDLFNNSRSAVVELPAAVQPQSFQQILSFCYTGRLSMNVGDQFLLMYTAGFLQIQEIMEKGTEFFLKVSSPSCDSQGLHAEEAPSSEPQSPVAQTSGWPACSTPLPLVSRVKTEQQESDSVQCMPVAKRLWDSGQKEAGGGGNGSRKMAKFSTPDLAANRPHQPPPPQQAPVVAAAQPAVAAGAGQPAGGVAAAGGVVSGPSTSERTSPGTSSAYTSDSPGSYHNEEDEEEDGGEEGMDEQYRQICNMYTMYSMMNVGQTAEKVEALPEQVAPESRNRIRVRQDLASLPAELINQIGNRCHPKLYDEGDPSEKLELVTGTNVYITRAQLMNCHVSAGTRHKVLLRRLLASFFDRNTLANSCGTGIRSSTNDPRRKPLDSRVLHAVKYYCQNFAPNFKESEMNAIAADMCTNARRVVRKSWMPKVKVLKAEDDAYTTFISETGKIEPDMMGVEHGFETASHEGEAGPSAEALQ
UniProt P12036: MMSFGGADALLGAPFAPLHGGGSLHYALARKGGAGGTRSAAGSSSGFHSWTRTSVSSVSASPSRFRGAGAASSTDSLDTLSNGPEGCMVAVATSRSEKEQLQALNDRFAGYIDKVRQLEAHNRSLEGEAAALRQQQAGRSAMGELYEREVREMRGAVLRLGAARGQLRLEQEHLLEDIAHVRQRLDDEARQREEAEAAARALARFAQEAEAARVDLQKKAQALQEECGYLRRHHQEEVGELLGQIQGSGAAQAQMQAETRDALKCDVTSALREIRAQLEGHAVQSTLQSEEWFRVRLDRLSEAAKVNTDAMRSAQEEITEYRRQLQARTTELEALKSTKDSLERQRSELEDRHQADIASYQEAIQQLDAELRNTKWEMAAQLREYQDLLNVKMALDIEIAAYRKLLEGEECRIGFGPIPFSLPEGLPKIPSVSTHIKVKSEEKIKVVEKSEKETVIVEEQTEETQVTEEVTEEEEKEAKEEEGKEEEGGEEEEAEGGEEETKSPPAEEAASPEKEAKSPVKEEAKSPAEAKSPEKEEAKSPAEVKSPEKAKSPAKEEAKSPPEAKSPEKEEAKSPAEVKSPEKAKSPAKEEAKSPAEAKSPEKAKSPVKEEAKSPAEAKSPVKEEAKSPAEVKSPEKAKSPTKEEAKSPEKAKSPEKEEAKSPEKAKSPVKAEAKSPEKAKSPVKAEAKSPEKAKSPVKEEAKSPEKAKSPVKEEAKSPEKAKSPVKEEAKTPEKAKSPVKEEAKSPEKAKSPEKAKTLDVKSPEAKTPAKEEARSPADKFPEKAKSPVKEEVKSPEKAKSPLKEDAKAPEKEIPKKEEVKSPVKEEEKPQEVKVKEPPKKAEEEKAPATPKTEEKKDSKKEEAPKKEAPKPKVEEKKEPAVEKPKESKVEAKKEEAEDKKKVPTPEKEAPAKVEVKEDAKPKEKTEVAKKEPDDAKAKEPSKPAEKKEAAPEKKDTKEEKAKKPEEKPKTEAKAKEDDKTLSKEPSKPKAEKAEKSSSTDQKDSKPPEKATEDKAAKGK
UniProt O95299, whole entry, looked up: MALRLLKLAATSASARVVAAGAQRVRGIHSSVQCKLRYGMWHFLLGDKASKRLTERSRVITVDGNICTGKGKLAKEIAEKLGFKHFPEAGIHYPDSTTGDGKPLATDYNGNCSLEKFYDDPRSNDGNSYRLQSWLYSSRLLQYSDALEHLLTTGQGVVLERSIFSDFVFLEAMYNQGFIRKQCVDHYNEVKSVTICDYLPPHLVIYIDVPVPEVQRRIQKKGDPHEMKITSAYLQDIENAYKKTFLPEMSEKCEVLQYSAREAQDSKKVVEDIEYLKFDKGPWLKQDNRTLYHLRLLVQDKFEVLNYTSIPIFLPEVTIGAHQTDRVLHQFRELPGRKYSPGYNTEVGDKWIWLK
UniProt E9PAV3, whole entry, looked up: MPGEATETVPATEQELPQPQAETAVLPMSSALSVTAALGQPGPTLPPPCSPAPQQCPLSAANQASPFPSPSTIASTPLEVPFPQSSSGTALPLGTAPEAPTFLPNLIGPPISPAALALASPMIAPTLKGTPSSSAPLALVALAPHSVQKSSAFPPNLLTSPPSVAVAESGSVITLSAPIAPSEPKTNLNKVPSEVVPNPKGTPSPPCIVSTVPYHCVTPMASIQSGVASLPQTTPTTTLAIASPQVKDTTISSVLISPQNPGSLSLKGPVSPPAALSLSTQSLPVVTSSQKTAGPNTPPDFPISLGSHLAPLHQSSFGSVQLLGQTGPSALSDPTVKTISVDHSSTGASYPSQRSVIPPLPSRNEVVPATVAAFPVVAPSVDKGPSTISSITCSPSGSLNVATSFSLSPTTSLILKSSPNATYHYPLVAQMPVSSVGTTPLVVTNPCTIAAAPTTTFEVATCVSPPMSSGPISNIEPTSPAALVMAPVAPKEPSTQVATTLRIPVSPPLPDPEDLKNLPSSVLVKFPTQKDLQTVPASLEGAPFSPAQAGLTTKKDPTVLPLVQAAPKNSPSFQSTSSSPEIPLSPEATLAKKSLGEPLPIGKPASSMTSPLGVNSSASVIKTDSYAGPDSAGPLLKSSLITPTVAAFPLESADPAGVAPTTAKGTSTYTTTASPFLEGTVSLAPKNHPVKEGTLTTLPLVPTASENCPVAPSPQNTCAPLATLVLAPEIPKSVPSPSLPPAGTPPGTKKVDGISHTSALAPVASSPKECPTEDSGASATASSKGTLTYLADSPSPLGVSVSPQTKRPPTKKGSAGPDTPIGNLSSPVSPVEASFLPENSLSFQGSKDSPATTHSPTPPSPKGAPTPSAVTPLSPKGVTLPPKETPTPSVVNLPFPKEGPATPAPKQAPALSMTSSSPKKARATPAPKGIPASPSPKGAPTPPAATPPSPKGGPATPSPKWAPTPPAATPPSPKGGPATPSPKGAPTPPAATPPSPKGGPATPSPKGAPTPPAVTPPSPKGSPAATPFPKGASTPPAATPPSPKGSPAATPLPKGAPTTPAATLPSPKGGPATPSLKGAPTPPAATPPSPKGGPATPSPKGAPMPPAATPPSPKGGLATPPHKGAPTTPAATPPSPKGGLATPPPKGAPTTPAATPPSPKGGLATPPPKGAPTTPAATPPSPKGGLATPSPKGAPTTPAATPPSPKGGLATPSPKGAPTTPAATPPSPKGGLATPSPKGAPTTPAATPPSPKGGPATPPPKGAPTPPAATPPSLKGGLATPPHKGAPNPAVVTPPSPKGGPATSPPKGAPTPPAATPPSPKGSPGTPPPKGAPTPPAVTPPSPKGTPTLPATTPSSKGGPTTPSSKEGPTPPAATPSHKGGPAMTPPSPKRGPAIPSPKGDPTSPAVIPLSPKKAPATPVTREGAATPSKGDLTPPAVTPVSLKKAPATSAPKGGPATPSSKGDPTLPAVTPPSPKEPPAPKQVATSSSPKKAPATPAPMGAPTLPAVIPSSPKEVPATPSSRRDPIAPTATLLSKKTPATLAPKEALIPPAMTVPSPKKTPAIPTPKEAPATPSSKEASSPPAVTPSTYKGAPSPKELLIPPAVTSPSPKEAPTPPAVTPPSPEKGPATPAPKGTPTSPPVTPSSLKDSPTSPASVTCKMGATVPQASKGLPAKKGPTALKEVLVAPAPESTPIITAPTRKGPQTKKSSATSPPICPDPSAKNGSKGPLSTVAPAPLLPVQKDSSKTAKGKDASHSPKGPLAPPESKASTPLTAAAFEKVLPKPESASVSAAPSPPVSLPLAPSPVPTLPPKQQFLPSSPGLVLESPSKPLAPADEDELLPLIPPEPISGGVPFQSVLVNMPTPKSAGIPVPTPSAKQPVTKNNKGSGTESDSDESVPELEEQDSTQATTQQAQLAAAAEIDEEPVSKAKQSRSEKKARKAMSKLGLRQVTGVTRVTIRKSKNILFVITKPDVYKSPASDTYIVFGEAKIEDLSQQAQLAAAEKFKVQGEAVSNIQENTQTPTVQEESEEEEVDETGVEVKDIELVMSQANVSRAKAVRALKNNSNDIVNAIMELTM

compound: O=C(CCCCCCC(=O)Nc1ccccc1)NO [vorinostat]; assay: log2 fold change, soluble protein after heating vs DMSO (PISA); higher = thermal stabilisation; K562 cells, 10 uM, 30 min; active = over 0.2 and 3.5 SD of the protein, either way, in both replicates (recomputed)
Outline: (§1)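 K562 cells at 2×10^6 cells/mL were exposed to 10 μM compound for 30 min, then aliquots were heated for 3 min across 48°C-58°C, pooled, and extracted in PBS containing 0.5% NP-40 at 4°C. The supernatant after 21,000xg for 90 min was taken as soluble protein and measured by TMTpro 16plex LC-MS/MS with channel sums equalised. Thermal stability is reported relative to control samples, with values from duplicates. Fold changes are given on a log2 scale.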

log2 fold change, inactive:
NDUFA6 (UniProt P56556) 0.118
NARS2 (UniProt Q96I59) 0
NEDD8 (UniProt Q15843) -0.201
NDUFA2 (UniProt O43678) 0.031
NDUFAF7 (UniProt Q7L592) -0.051
NDUFB5 (UniProt O43674) -0.035
NADK (UniProt O95544) -0.037
NANP (UniProt Q8TBE9) -0.074
NDUFS3 (UniProt O75489) 0.012
NAP1L4 isoform 2 (UniProt Q99733) -0.027
NAP1L5 (UniProt Q96NT1) 0.026
NDRG3 (UniProt Q9UGV2) 0.002
NADSYN1 (UniProt Q6IA69) -0.026
NDUFA7 (UniProt O95182) 0.012
NDUFB1 (UniProt O75438) 0.108
NAA15, A0A0B4J1W3 0.037
NA, A0A096LPI6 -0.02
NCEH1 isoform 2 (UniProt Q6PIU2) -0.009
NDUFAF4 (UniProt Q9P032) -0.01
NDUFC2 (UniProt O95298) -0.126
NAF1 (UniProt Q96HR8) 0.008
NCOA6 (UniProt Q14686) -0.044
NDUFS4 (UniProt O43181) -0.058
NAGK isoform 2 (UniProt Q9UJ70) -0.069
NDUFA4 (UniProt O00483) -0.11
NACC1 (UniProt Q96RE7) 0.148
NEFH (UniProt P12036) -0.069
NCSTN (UniProt Q92542) -0.034
NDUFA3 (UniProt O95167) -0.096
NCOA7 (UniProt Q8NI08) 0.026
NDUFA10 (UniProt O95299) 0.061
NACA (UniProt E9PAV3) -0.008
NDUFV3 isoform 2 (UniProt P56181) -0.015

compound: O=C(CCCCCCNC(=O)c1cnc(N(c2ccccc2)c2ccccc2Cl)nc1)NO [citarinostat]; assay: as above
Outline: as §1

log2 fold change, inactive:
NDUFA6 (UniProt P56556) 0.036
NARS2 (UniProt Q96I59) 0.043
NEDD8 (UniProt Q15843) 0.034
NDUFA2 (UniProt O43678) -0.019
NDUFAF7 (UniProt Q7L592) 0.133
NDUFB5 (UniProt O43674) 0.011
NADK (UniProt O95544) 0.014
NANP (UniProt Q8TBE9) -0.059
NDUFS3 (UniProt O75489) 0.019
NAP1L4 isoform 2 (UniProt Q99733) -0.006
NAP1L5 (UniProt Q96NT1) 0.053
NDRG3 (UniProt Q9UGV2) 0.017
NADSYN1 (UniProt Q6IA69) -0.032
NDUFA7 (UniProt O95182) 0.008
NDUFB1 (UniProt O75438) -0.026
NAA15, A0A0B4J1W3 0.021
NA, A0A096LPI6 0.022
NCEH1 isoform 2 (UniProt Q6PIU2) 0.042
NDUFAF4 (UniProt Q9P032) 0.076
NDUFC2 (UniProt O95298) 0.094
NAF1 (UniProt Q96HR8) -0.021
NCOA6 (UniProt Q14686) -0.069
NDUFS4 (UniProt O43181) -0.069
NAGK isoform 2 (UniProt Q9UJ70) -0.014
NDUFA4 (UniProt O00483) 0.037
NACC1 (UniProt Q96RE7) 0.235
NEFH (UniProt P12036) -0.044
NCSTN (UniProt Q92542) 0.037
NDUFA3 (UniProt O95167) 0.031
NCOA7 (UniProt Q8NI08) -0.001
NDUFA10 (UniProt O95299) 0.024
NACA (UniProt E9PAV3) 0.027
NDUFV3 isoform 2 (UniProt P56181) -0.044

compound: O=C(O)c1ccc2c(c1)nc(Nc1cccc(Cl)c1)c1ccncc12 [silmitasertib]; assay: as above
Outline: as §1

log2 fold change, inactive:
NDUFA6 (UniProt P56556) -0.016
NARS2 (UniProt Q96I59) -0.04
NEDD8 (UniProt Q15843) 0.003
NDUFA2 (UniProt O43678) -0.124
NDUFAF7 (UniProt Q7L592) -0.161
NDUFB5 (UniProt O43674) 0.007
NADK (UniProt O95544) -0.026
NANP (UniProt Q8TBE9) 0.109
NDUFS3 (UniProt O75489) -0.039
NAP1L4 isoform 2 (UniProt Q99733) 0.02
NAP1L5 (UniProt Q96NT1) 0.055
NDRG3 (UniProt Q9UGV2) -0.02
NADSYN1 (UniProt Q6IA69) -0.016
NDUFA7 (UniProt O95182) -0.037
NDUFB1 (UniProt O75438) -0.014
NAA15, A0A0B4J1W3 0.007
NA, A0A096LPI6 0.024
NCEH1 isoform 2 (UniProt Q6PIU2) -0.022
NDUFAF4 (UniProt Q9P032) -0.015
NDUFC2 (UniProt O95298) 0.028
NAF1 (UniProt Q96HR8) -0.021
NCOA6 (UniProt Q14686) -0.035
NDUFS4 (UniProt O43181) 0.03
NAGK isoform 2 (UniProt Q9UJ70) -0.049
NDUFA4 (UniProt O00483) -0.005
NACC1 (UniProt Q96RE7) -0.027
NEFH (UniProt P12036) 0.119
NCSTN (UniProt Q92542) 0.041
NDUFA3 (UniProt O95167) -0.067
NCOA7 (UniProt Q8NI08) 0.022
NDUFA10 (UniProt O95299) -0.012
NACA (UniProt E9PAV3) 0.001
NDUFV3 isoform 2 (UniProt P56181) 0.004
